Experimental data reported in paper PMC8472512, “Synthesis and Biochemical Evaluation of Baicalein Prodrugs” (Pharmaceutics, 2021).

Experiment: in vitro
Settings: PAMPA

- Papp: < 0.1 ×10⁻⁶ cm/s
Structure (SMILES): CC(C)NCC(O)COc1ccc(CC(N)=O)cc1 (stereo not shown) [atenolol]
